PubChem BioAssay AID1159578 | Peter MacCallum Cancer Centre | 2015
Aim: 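siRNA pools altering how lymphatic endothelial cells close a scratch wound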 (primary screen). Cells: human lymphatic endothelial cells. Knock-down reagent: siRNA pool against human genes, 40 nM. Timing: 48 h after transfection. Measurement: 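High-content imaging of dye-stained cells in a scratch assay measures filled wound area and nuclei per well; duplicate means given as ratio to mock and robust z-score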. Scale: migration robust z-score: higher = faster migration into the scratch; nuclei per well: higher = more cells in the well. Call rule: 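Pools averaging fewer than 3300 nuclei are never called; remaining pools count as changed when migration robust z lies outside -2 to 2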. Calls: active = migration changed; inactive = no migration change, or too few cells.
Here is one part, drawn at random, of about 18,000 reagents tested. In the full data, about 1,030 (5.7%) are marked active. 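Inactive calls also include pools with fewer than 3300 nuclei, whose migration was not assessed.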 The raw values are shown without normalisation. Unmarked entries are inactive. Further read-outs or replicates are left out here.

Target gene	migration robust z-score	migration class with cell-count check	nuclei per well, duplicate mean
SPATA21	0.7	migration z between -2 and 2; enough cells	5706
LRTOMT	1.5	migration z between -2 and 2; enough cells	5172
VPS13B	0.05	migration z between -2 and 2; enough cells	6148
RRP9	-0.43	migration z between -2 and 2; enough cells	5366
KRT82	-0.45	migration z between -2 and 2; enough cells	6268
SPATA22	-1.74	migration z between -2 and 2; enough cells	6170
ZNF320	-0.66	migration z between -2 and 2; enough cells	4592
SLC4A7	-0.9	migration z between -2 and 2; enough cells	6116
COL4A5	-0.94	migration z between -2 and 2; enough cells	5312
ATP6V1D	-1.27	migration z between -2 and 2; enough cells	3804
CORO1B	-0.8	migration z between -2 and 2; enough cells	5826
MAMSTR	0.42	migration z between -2 and 2; enough cells	5910
ZNF584	0.31	migration z between -2 and 2; enough cells	6554
AP2A1	-0.62	migration z between -2 and 2; enough cells	6436
KCNK4	-0.44	migration z between -2 and 2; enough cells	5366

Next part; the last 3 above are carried over.
Target gene	migration robust z-score	migration class with cell-count check	nuclei per well, duplicate mean
ZNF584	0.31	migration z between -2 and 2; enough cells	6554
AP2A1	-0.62	migration z between -2 and 2; enough cells	6436
KCNK4	-0.44	migration z between -2 and 2; enough cells	5366
XKR7	0.72	migration z between -2 and 2; enough cells	6354
COPS8	-0.8	migration z between -2 and 2; enough cells	5438
WDR31	0.32	migration z between -2 and 2; enough cells	6132
RSPH9	2.69 (active)	migration z above 2; enough cells	6385
OR52N1	1.4	migration z between -2 and 2; enough cells	6010
SIPA1L2	0.04	migration z between -2 and 2; enough cells	5436
SCML1	0.13	migration z between -2 and 2; enough cells	5890
F2RL3	-0.24	migration z between -2 and 2; enough cells	4874
